In the supplement of paper PMC12823440, “Inhibitors supercharge kinase turnover through native proteolytic circuits” (Nature, 2025):
Counter-ions that a name gives are not always drawn. The list shows a part of the results. Hit calls seldom repeat between salt and free forms of one compound.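 In K562 cells expressing nanoluciferase-fused kinases, luminescence was recorded at 4 h intervals between 2 and 18 h, normalized as percent of control with DMSO at 100% and a positive control at 0%. A significant (2 sigma) signal drop marks a time point as decreased. The authors' rule for a hit is not shown and takes in more than the number of time points.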

Sequences of proteins named here, by UniProt entry; tags and fusion partners are left off. A change or cut given only in a name is not applied to a line headed by its entry.
UniProt P48729: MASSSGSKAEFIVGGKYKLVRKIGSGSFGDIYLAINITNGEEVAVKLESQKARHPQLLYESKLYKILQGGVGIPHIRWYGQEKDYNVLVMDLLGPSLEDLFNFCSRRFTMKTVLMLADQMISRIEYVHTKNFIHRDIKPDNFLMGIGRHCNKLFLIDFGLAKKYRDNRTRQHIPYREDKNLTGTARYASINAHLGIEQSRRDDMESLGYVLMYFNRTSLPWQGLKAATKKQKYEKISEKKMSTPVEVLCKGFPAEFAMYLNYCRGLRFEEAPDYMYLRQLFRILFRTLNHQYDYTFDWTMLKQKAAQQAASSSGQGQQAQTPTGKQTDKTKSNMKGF
UniProt P48730: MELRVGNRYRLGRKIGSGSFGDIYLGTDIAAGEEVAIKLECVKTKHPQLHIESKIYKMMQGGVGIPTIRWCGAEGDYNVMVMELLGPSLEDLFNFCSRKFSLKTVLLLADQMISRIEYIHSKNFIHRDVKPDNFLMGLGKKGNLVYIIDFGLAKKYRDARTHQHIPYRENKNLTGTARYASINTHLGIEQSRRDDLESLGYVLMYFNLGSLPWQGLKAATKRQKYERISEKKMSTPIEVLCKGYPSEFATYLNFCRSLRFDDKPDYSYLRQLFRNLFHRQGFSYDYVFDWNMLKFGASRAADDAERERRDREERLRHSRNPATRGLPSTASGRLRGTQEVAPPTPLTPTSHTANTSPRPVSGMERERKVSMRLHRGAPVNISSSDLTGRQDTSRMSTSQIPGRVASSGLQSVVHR
UniProt Q08345: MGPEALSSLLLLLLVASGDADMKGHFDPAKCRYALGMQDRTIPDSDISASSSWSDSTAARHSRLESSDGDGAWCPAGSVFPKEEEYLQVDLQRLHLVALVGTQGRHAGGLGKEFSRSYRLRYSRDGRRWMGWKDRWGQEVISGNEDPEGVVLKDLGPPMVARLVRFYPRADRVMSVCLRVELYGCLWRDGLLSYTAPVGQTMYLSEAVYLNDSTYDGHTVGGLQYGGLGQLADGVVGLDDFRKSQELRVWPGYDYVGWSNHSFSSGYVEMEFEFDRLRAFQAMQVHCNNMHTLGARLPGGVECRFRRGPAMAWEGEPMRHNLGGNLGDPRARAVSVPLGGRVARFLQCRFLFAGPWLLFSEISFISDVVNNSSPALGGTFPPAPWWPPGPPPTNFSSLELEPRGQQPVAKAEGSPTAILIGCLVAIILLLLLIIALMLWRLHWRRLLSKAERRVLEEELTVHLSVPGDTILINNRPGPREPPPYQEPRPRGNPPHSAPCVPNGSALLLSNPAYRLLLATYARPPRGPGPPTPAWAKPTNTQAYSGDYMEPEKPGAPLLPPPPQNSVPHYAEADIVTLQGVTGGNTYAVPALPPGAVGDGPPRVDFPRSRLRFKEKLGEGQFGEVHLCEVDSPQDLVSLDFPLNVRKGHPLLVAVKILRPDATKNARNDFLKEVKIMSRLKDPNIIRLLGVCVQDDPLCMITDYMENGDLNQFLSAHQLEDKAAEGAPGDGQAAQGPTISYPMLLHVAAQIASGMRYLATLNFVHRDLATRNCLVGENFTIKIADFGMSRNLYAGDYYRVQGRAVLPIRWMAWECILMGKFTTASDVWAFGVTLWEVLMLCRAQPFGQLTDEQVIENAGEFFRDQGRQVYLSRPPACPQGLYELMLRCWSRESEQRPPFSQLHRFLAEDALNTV
UniProt Q9Y463, whole entry, looked up: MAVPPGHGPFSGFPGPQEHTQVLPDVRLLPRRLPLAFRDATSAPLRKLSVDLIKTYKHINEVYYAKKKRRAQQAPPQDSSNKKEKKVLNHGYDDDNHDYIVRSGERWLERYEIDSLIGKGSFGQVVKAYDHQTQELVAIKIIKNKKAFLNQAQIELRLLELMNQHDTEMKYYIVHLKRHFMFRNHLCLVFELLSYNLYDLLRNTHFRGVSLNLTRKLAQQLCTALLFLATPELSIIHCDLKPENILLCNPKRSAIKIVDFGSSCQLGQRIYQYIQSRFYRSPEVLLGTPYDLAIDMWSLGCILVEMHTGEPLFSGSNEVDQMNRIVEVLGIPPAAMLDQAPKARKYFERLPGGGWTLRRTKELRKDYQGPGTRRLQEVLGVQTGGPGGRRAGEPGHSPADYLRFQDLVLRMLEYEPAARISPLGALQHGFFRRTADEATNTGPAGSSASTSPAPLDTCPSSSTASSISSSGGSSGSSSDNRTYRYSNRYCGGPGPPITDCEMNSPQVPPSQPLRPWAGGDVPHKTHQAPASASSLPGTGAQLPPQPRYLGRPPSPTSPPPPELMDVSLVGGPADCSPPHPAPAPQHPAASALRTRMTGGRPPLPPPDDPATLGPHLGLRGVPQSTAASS
UniProt Q92630: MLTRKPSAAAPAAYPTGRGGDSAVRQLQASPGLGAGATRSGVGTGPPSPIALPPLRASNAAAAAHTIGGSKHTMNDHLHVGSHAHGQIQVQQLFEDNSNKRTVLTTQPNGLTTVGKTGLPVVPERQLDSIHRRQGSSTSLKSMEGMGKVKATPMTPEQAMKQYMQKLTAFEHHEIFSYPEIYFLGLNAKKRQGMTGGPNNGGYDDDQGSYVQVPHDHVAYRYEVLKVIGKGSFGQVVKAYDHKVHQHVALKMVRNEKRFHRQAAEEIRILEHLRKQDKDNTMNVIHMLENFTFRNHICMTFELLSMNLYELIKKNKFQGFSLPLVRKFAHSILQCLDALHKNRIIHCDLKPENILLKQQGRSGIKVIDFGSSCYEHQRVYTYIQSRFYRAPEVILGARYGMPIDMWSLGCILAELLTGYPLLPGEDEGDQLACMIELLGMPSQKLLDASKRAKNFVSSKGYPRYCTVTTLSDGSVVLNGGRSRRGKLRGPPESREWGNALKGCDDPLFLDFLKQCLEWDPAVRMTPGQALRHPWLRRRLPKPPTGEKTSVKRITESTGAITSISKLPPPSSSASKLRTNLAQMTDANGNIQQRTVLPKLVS

How the values were obtained:
Assay in all cases: number of time points (of 5) at which kinase-Nluc abundance scored as decreased, DMSO-normalised (count); higher = more persistent destabilization
Settings in all cases: K562; 2-18 h
CSNK1A1 = CSNK1A1 (UniProt P48729)
CSNK1D = CSNK1D (UniProt P48730)
DDR1 = DDR1 (UniProt Q08345)
DYRK1B = DYRK1B (UniProt Q9Y463)
DYRK2 = DYRK2 (UniProt Q92630)
EGFR = EGFR (UniProt P00533)
EGFR_G719S = EGFR_G719S (UniProt P00533)
EGFR_G719S_T790M = EGFR_G719S_T790M (UniProt P00533)
EGFR_L718V = EGFR_L718V (UniProt P00533)
EGFR_L858R = EGFR_L858R (UniProt P00533)

| SMILES | number of time points (CSNK1A1) | number of time points (CSNK1D) | number of time points (DDR1) | number of time points (DYRK1B) | number of time points (DYRK2) | number of time points (EGFR) | number of time points (EGFR_G719S) | number of time points (EGFR_G719S_T790M) | number of time points (EGFR_L718V) | number of time points (EGFR_L858R) |
| --- | --- | --- | --- | --- | --- | --- | --- | --- | --- | --- |
| C=C1CCC[C@]2(C)C=C3OC(=O)C(C)=C3C[C@@H]12 [Atractylenolide I] (10 µM) | 0 | 0 | 0 | 0 | 0 | 0 | 0 | 0 | 0 | 0 |
| Cc1cc(C)cc(NC(N)=Nc2ccccc2C(F)(F)F)c1 (10 µM) | 0 | 0 | 0 | 0 | 0 | 0 | 0 | 0 | 0 | 0 |
| COc1cc(-c2oc3cc(O)cc(O)c3c(=O)c2O)ccc1O [Isorhamnetin] (10 µM) | 0 | 0 | 0 | 0 | 0 | 0 | 0 | 0 | 0 | 0 |
| Brc1ccc(CSc2nc3ccccc3o2)cc1 [BMP signaling agonist sb4] (10 µM) | 0 | 0 | 0 | 0 | 0 | 0 | 0 | 0 | 0 | 0 |
| C#Cc1cccc(Nc2ncnc3cc(OC)c(NC(=O)N4C[C@H]5CCN(C)[C@H]5C4)cc23)c1 [Theliatinib] (10 µM) | 0 | 0 | 0 | 0 | 0 | 0 | 0 | 0 | 0 | 0 |
| Clc1ccc(C(c2ccc(Cl)cc2)[n+]2ccn(CC(OCc3ccc(Cl)cc3Cl)c3ccc(Cl)cc3Cl)c2)cc1 (stereo not given) [Calmidazolium chloride] (2.5 µM) | 0 | 0 | 1 | 2 | 0 | 0 | 0 | 0 | 0 | 0 |
| COc1ccc2c(Oc3ccc4c(C(=O)Nc5ccccc5N)cccc4c3)ccnc2c1 [Chiauranib] (10 µM) | 0 | 3 | 1 | 0 | 2 | 0 | 0 | 0 | 0 | 0 |
| COc1ccc(-c2cc(=O)c3c(OC)cc(OC)c(OC)c3o2)cc1 [6-Demethoxytangeretin] (10 µM) | 0 | 0 | 0 | 0 | 0 | 0 | 0 | 0 | 0 | 0 |
| Cc1c(Cl)cccc1S(=O)(=O)Nc1nc(NCCc2ccccc2)nc2c1CN(Cc1ccccc1)CC2 (2.5 µM) | 0 | 0 | 3 | 0 | 0 | 0 | 0 | 0 | 0 | 0 |
| NC(=O)c1cnc(-c2ccc(C3(N)CCC3)cc2)c(-c2ccccc2)c1 (10 µM) | 0 | 0 | 0 | 0 | 0 | 0 | 0 | 0 | 0 | 0 |
| COc1cc2ncnc(Oc3ccc(CC(=O)Nc4cnn(C(C)C)c4)cc3)c2cc1OC (10 µM) | 0 | 0 | 0 | 0 | 3 | 0 | 0 | 0 | 0 | 0 |
| NC1(C(=O)NCCCn2cc(-c3ccc(OC(F)(F)F)cc3)c3cc(CN4CCN(Cc5c(Cl)cccc5Cl)CC4)ccc32)CCNCC1 (2.5 µM) | 0 | 0 | 0 | 0 | 4 | 0 | 0 | 0 | 0 | 0 |
| Cc1cccc(COc2cccc(/C=C3\C(=O)NN(c4ccccc4)C3=O)c2)c1 (10 µM) | 0 | 0 | 0 | 0 | 0 | 0 | 0 | 0 | 0 | 0 |
| COc1c(O)cc2oc(-c3ccc(O)cc3)cc(=O)c2c1O [Hispidulin] (10 µM) | 0 | 0 | 0 | 0 | 0 | 0 | 0 | 0 | 0 | 0 |
| Cc1cc(C(=O)Nc2nc3cccc(Cl)c3n2[C@@H]2CCCCN(C(=O)/C=C/CN(C)C)C2)ccn1 [Nazartinib] (10 µM) | 0 | 0 | 0 | 0 | 0 | 0 | 0 | 0 | 0 | 0 |
| CC(C)n1c(=O)n(C)c2cnc3cc(F)c(-c4ccc(OCCCN5CCCCC5)nc4)cc3c21 (10 µM) | 0 | 0 | 0 | 4 | 0 | 0 | 0 | 0 | 0 | 0 |
| O=C1NC(=O)/C(=C\c2c[nH]c(=O)c(-c3ccc(N4CCNCC4)nc3)c2)S1 [Protein kinase inhibitors 1 hydrochloride] (10 µM) | 0 | 0 | 0 | 0 | 0 | 0 | 0 | 0 | 0 | 0 |
| COc1cc2c(cc1O)C[C@H]1c3cc(O)c(OC)cc3CC[N@@+]1(C)C2 [Phellodendrine] (10 µM) | 0 | 0 | 0 | 0 | 0 | 0 | 0 | 0 | 0 | 0 |
| CC(C)[C@H](CO)Nc1nc(Nc2cccc(Cl)c2)c2ncn(C(C)C)c2n1 [Purvalanol A] (10 µM) | 0 | 0 | 5 | 0 | 0 | 0 | 0 | 0 | 0 | 0 |

Whole records from above. Order of values: number of time points (CSNK1A1)	number of time points (CSNK1D)	number of time points (DDR1)	number of time points (DYRK1B)	number of time points (DYRK2)	number of time points (EGFR)	number of time points (EGFR_G719S)	number of time points (EGFR_G719S_T790M)	number of time points (EGFR_L718V)	number of time points (EGFR_L858R)
Cc1cccc(COc2cccc(/C=C3\C(=O)NN(c4ccccc4)C3=O)c2)c1 (10 µM) is listed as 0	0	0	0	0	0	0	0	0	0
COc1cc2c(cc1O)C[C@H]1c3cc(O)c(OC)cc3CC[N@@+]1(C)C2 [Phellodendrine] (10 µM) is listed as 0	0	0	0	0	0	0	0	0	0
